# Laboratory results: PubChem BioAssay AID1224829 (NIAID, 2016)
# Screen: 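Follow-up of TLR4-NF-kappaB regulators using six separate siRNAs for each gene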 (follow-up of hits)
# Cells: mouse RAW264.7 G9 macrophage reporter cells
# Reagents: single siRNA against mouse genes, 100 nM
# Timing: 2 days of siRNA knock-down, then 40 min of LPS before fixing
# Challenge: LPS (Salmonella minnesota R595) at 10 ng/ml
# Read-out: 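High-content images after 40 min LPS exposure; GFP-p65 nucleus to surrounding ring signal ratio, normalised to plate median and non-targeting control wells, expressed as z-score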
# Direction: p65 translocation z-score: higher = more nuclear NF-kappaB p65 after LPS
# Rule for the call: 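Active means the replicate-mean z-score lies beyond plus or minus 2, in either direction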
# Calls: active = changed p65 translocation (either direction); inactive = no clear change
# Here is one part, drawn at random, of about 3,800 reagents. 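Calls cover raised and lowered translocation; gene median uses one vendor's three siRNAs; qiagen siRNAs acted more weakly than ambion siRNAs.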 Reagents against one gene are numbered here. Further read-outs or replicates are left out here.
Target gene,reagent,siRNA vendor or control pool,"p65 translocation z-score, replicate mean","p65 translocation z-score, replicate 1",call
Tceal6,1,qiagen single siRNA,2.66,1.94,active
Tceal6,2,qiagen single siRNA,-0.48,0.173,inactive
Tceal6,3,qiagen single siRNA,-0.0551,-0.0551,inactive
Fech,1,ambion single siRNA,-3.87,-3.87,active
Fech,2,ambion single siRNA,-3.55,-3.39,active
Fech,3,ambion single siRNA,-4.13,-4.13,active
Fech,4,qiagen single siRNA,3.04,2.1,active
Fech,5,qiagen single siRNA,2.81,1.51,active
Fech,6,qiagen single siRNA,-2.39,-1.68,active
Pdk3,1,ambion single siRNA,4.04,4.06,active
Pdk3,2,ambion single siRNA,-2.75,-2.16,active
Pdk3,3,ambion single siRNA,-2.43,-2.79,active
Pdk3,4,qiagen single siRNA,-1.38,-1.67,inactive
Pdk3,5,qiagen single siRNA,-0.512,-1.4,inactive
Pdk3,6,qiagen single siRNA,-0.85,-0.214,inactive

3 consecutive entries from above, quoted:
Target gene,reagent,siRNA vendor or control pool,"p65 translocation z-score, replicate mean","p65 translocation z-score, replicate 1",call
Fech,3,ambion single siRNA,-4.13,-4.13,active
Fech,4,qiagen single siRNA,3.04,2.1,active
Fech,5,qiagen single siRNA,2.81,1.51,active

More entries:
Target gene,reagent,siRNA vendor or control pool,"p65 translocation z-score, replicate mean","p65 translocation z-score, replicate 1",call
Brd8,1,ambion single siRNA,0.853,0.662,inactive
Brd8,2,ambion single siRNA,0.394,1.08,inactive
Brd8,3,ambion single siRNA,-5.77,-5.3,active
Brd8,4,qiagen single siRNA,1.48,0.377,inactive
Brd8,5,qiagen single siRNA,-2.49,-2.39,active
Brd8,6,qiagen single siRNA,-1.14,-0.847,inactive
Crebl2,1,ambion single siRNA,-2.27,-2.68,active
Crebl2,2,ambion single siRNA,-1.78,-1.78,inactive
Crebl2,3,ambion single siRNA,-3.53,-4.13,active
Crebl2,4,qiagen single siRNA,2.82,2.66,active
Crebl2,5,qiagen single siRNA,-0.115,0.0277,inactive
Crebl2,6,qiagen single siRNA,-0.569,-0.432,inactive
Gpr4,1,ambion single siRNA,-1.24,-1.85,inactive
Gpr4,2,ambion single siRNA,-2.17,-2.81,active
Gpr4,3,ambion single siRNA,-3.97,-4.29,active
Gpr4,4,qiagen single siRNA,1.89,2.75,inactive
Gpr4,5,qiagen single siRNA,0.554,1.21,inactive
Gpr4,6,qiagen single siRNA,-1.82,-1.82,inactive
Prpf39,1,ambion single siRNA,-1.86,-1.25,inactive
Prpf39,2,ambion single siRNA,-1.49,-1.67,inactive
Prpf39,3,ambion single siRNA,-1.32,1.02,inactive
Prpf39,4,qiagen single siRNA,3.53,2.91,active
Prpf39,5,qiagen single siRNA,1.9,0.796,inactive
Prpf39,6,qiagen single siRNA,0.226,-0.207,inactive
